This is one part of the list. Further columns of the screen follow, without active or inactive calls. Most of these compounds were active or inconclusive in the main read-out, so they are no random draw. Potencies come from curve fits of mixed quality, noted in brackets.
Assay: qHTS Assay for Modulators of Lamin A Splicing
Settings: HeLa LMNA splicing GFP/RFP minigene ratio, 48 h
Procedure, shortened: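 S3 HeLa cells stably expressing lamin A-EGFP splicing minigene plus DsRed2, 600 cells/well, 48 h compound exposure at 37C. Laser-scanning cytometry; analysed as GFP (500-530 nm)/RFP (575-640 nm) total intensity ratio; 0.5% DMSO vehicle.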

[1] = measured here: RFP viability control channel
[2] = measured here: GFP splicing reporter channel

Oc1ccccc1/C=N/Nc1ncc(Br)cn1
AC50 [1]: 14.1 µM [rising, partial curve]

COc1ccc(OCC(=O)N/N=C(\C)c2ccc(-n3ccnc3)cc2)cc1
AC50 [1]: 14.1 µM [rising, partial curve]

CCCCN(CCCC)S(=O)(=O)c1ccc(C(=O)Nc2sc3c(c2C(N)=O)CCN(CC)C3)cc1
AC50 [1]: 17.8 µM [falling, single point]

CCOC(=O)c1nnn(-c2nonc2N)c1-c1ccc(F)cc1
AC50 [1]: 1.26 µM [rising, partial curve]

COc1cccc(C(=O)Nc2nc(-c3ccccc3)c(-c3ccccc3)o2)c1
AC50 [1]: 25.1 µM [rising, single point]

CCC(Sc1nc2ccccc2[nH]1)C(=O)Nc1ccc(NC(C)=O)cc1 (stereo not given)
AC50 [1]: 1.12 µM [rising, single point]

O=C1CCC(=O)N1c1ccc(CSc2nc3ccccc3[nH]2)cc1
AC50 [2]: 11.2 µM [rising, single point] | AC50 [1]: 20 µM [rising, single point]

O=C(CN1C(=O)NC2(CCCCCC2)C1=O)N1CCC(Cc2ccccc2)CC1
AC50 [2]: 14.1 µM [rising, single point] | AC50 [1]: 20 µM [rising, single point]

Cc1cccc(N2CCN(C(=O)CCNC(=O)Cn3ccc4ccccc4c3=O)CC2)c1C
AC50 [2]: 25.1 µM [rising, single point] | AC50 [1]: 22.4 µM [rising, single point]

Cc1ccc(OCc2ccc(-c3nc(C#N)c(N4CCN(c5cccc(Cl)c5)CC4)o3)o2)cc1
AC50 [1]: 0.00891 µM [falling, full curve, poor fit]

C[C@@H](CN(C)C)CN1c2ccccc2CCc2ccccc21
AC50 [2]: 0.224 µM [falling, full curve] | AC50 [1]: 0.316 µM [falling, full curve, poor fit]

O=C(N/N=C/c1ccccc1)c1cc(-c2ccc3c(c2)OCO3)n[nH]1
AC50 [1]: 12.6 µM [rising, single point]

CC(=O)c1c(C)[nH]c(C(=O)CSc2ncnc3sc(-c4ccccc4)cc23)c1C
AC50 [1]: 12.6 µM [rising, partial curve]

COc1cc(NC(=O)Cn2nc(C(F)(F)F)c3c2CCCC3)cc(OC)c1OC
AC50 [1]: 35.5 µM [rising, single point]

Cc1nc2c([nH]1)c(=O)n(C)c(=O)n2Cc1ccco1
AC50 [1]: 6.31 µM [falling, single point]

Cc1occc1-c1nnc(SCC(=O)Nc2ccccn2)o1
AC50 [2]: 12.6 µM [rising, single point]

CCn1ccnc1CN1CCN(CCC(C)C)C(CCO)C1 (stereo not given)
AC50 [1]: 6.31 µM [falling, partial curve, poor fit]

COc1ccc(NC(=O)/C(Cl)=C(/Cl)S(=O)Cc2ccccc2Cl)cn1 (stereo not given)
AC50 [2]: 0.708 µM [falling, full curve]

Cc1ccc(S(=O)(=O)NC(CN2CCOCC2)=NCCNS(=O)(=O)c2ccccc2)cc1
AC50 [1]: 3.16 µM [rising, single point]

Cc1c(Cl)cccc1NC(=S)NN
AC50 [2]: 0.112 µM [falling, full curve] | AC50 [1]: 0.0316 µM [falling, partial curve]

O=C(NNc1ccccc1Br)C(O)(c1cccc(C(F)(F)F)c1)c1cccc(C(F)(F)F)c1
AC50 [2]: 6.31 µM [rising, partial curve] | AC50 [1]: 11.2 µM [rising, partial curve]

O=C(CC1C(=O)NCCN1CC1CCCCC1)NCc1ccc(Cl)cc1 (stereo not given)
AC50 [2]: 35.5 µM [falling, single point] | AC50 [1]: 35.5 µM [falling, single point]

CN(NS(C)(=O)=O)c1ncc(C(F)(F)F)cc1Cl
AC50 [1]: 10 µM [falling, partial curve]

CC(NC(=O)C1CC12CCC2)c1ccccc1 (stereo not given)
AC50 [1]: 0.00891 µM [falling, full curve, poor fit]

COc1cc2nc(CN(C)Cc3ccc(C(C)(C)C)cc3)[nH]c(=O)c2cc1OC
AC50 [1]: 0.112 µM [falling, full curve, poor fit]

CC1COc2ccccc2N1S(=O)(=O)c1ccccc1 (stereo not given)
AC50 [2]: 0.794 µM [rising, full curve, poor fit]

Cc1cc(C)nc(SCC(=O)Nc2ccc(N3CCOCC3)c(Cl)c2)n1
AC50 [2]: 2 µM [rising, full curve, poor fit] | AC50 [1]: 3.55 µM [rising, full curve]

CC1=C(C(=O)Nc2ccccc2Cl)C(c2cccs2)n2ncnc2N1 (stereo not given)
AC50 [1]: 35.5 µM [rising, single point]

COc1ccccc1NC(=O)c1cc(C(=O)O)ccc1C(=O)O
AC50 [1]: 11.2 µM [rising, partial curve]

O=[N+]([O-])c1ccc(O)c2ncccc12
AC50 [2]: 3.98 µM [falling, full curve, poor fit] | AC50 [1]: 0.891 µM [falling, full curve]

O=C(CN1C2=NCCN2c2ccccc21)c1ccc(Br)s1
AC50 [2]: 12.6 µM [rising, single point] | AC50 [1]: 22.4 µM [rising, single point]

Cc1ccc(NC(=S)N(CCCN2CCCC2)Cc2cccn2Cc2ccc(Cl)cc2)cc1
AC50 [2]: 12.6 µM [falling, partial curve] | AC50 [1]: 35.5 µM [falling, single point]

CCOC(=O)N1CCN(C(=O)COc2ccc(S(=O)(=O)NCc3ccccc3)cc2)CC1
AC50 [2]: 11.2 µM [rising, partial curve] | AC50 [1]: 14.1 µM [rising, single point]

O=S(=O)(NCc1ccccc1)c1ccc2[nH]c3c(c2c1)CCCCC3
AC50 [2]: 14.1 µM [falling, single point] | AC50 [1]: 17.8 µM [falling, partial curve]

C/C(=N\NC(=O)c1ccc(N/N=C(\C)c2ccncc2)cc1)c1ccncc1
AC50 [2]: 10 µM [falling, partial curve, poor fit]

Cc1ccc(C(=O)/C=C/c2c(C)nn(-c3ccccc3)c2Cl)cc1
AC50 [2]: 35.5 µM [falling, single point] | AC50 [1]: 35.5 µM [falling, single point]

COC(=O)Nc1nc2ccc(-c3n[nH]c(=O)c4ccccc34)cc2[nH]1
AC50 [2]: 35.5 µM [rising, single point] | AC50 [1]: 35.5 µM [rising, single point]

Cc1ccc(C2=NN(C)c3nc4ccccc4n3C2)cc1
AC50 [1]: 12.6 µM [rising, single point]

O=C(Nc1ccc2ccccc2c1)/C(=C\c1ccc2c(c1)OCO2)NC(=O)c1ccco1
AC50 [1]: 12.6 µM [rising, single point]

Cc1ccccc1C(=O)N1CCN(c2ccc([N+](=O)[O-])c(NCc3cccnc3)c2)CC1
AC50 [1]: 7.08 µM [rising, partial curve, poor fit]

Cc1ccc(C2Nc3ccccc3NC3=C2C(=O)OC(C)C3)cc1 (stereo not given)
AC50 [1]: 0.0631 µM [falling, partial curve, poor fit]

CN1CCc2nc(SCC(=O)Nc3ccc(OC(F)(F)F)cc3)c(C#N)c(-c3cccs3)c2C1
AC50 [2]: 0.00891 µM [rising, full curve] | AC50 [1]: 0.00708 µM [rising, full curve]

CCOC(=O)c1c(CSC(=N)N)n(-c2ccc(C)cc2)c2cc(Br)c(OC(C)=O)cc12
AC50 [2]: 35.5 µM [falling, single point] | AC50 [1]: 25.1 µM [falling, single point]

O=C(NC1CC(=O)N(c2cccc(F)c2)C1)C1CCCCC1 (stereo not given)
AC50 [2]: 11.2 µM [falling, partial curve, poor fit] | AC50 [1]: 35.5 µM [falling, single point]

CC1CN(Cc2c(O)ccc3c(=O)c(-c4ccccc4)coc23)CC(C)O1 (stereo not given)
AC50 [2]: 0.141 µM [rising, full curve, poor fit]

O=C(CSc1ccccc1)N(c1ccc(Br)cc1)c1nccs1
AC50 [1]: 35.5 µM [rising, single point]

CCCN1C(=O)CN(C2CCCCCC2)C(=O)C1c1ccc(OCC)c(OC)c1 (stereo not given)
AC50 [2]: 0.0251 µM [falling, full curve]

COC(=O)c1cc(NC(=O)c2cccc(Cl)c2)c(=O)oc1/C=C/Nc1cc(C)cc(C)c1
AC50 [2]: 1.78 µM [rising, full curve]

COc1cccc(-c2cc(C(F)(F)F)n3nc(C(=O)Nc4c(C)n(C)n(-c5ccccc5)c4=O)cc3n2)c1
AC50 [2]: 35.5 µM [falling, partial curve, poor fit]

Cc1ccccc1NC(=O)CN(C)S(=O)(=O)c1cccc2nsnc12
AC50 [1]: 10 µM [falling, partial curve, poor fit]

O=S(=O)(/C=C/c1ccccc1)Oc1ccccc1
AC50 [2]: 35.5 µM [falling, single point]

CCOC(=O)c1cnn(CCOC(=O)C2CC2)c1NC(=O)C1CC1
AC50 [2]: 3.55 µM [falling, partial curve]

Nc1nc2nccc(-c3cccnc3)n2n1
AC50 [2]: 0.708 µM [rising, full curve, poor fit]

CCOC(=O)c1c(NC(=O)CN2CCCCC2)sc(C)c1C
AC50 [2]: 28.2 µM [rising, partial curve, poor fit] | AC50 [1]: 35.5 µM [rising, single point]

Cc1ccc(C(=O)N2CCN(c3ccccc3F)CC2)cc1NC(=O)c1nsc2ccccc12
AC50 [2]: 3.16 µM [rising, single point]

COc1ccc(Cl)cc1N(CC(=O)NC(C)(C)C)S(=O)(=O)c1ccc(C)c([N+](=O)[O-])c1
AC50 [1]: 22.4 µM [rising, single point]
